Structures can show the parent of a compound that is named as a salt. The list shows a part of the results. Hit calls seldom repeat between salt and free forms of one compound.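 Kinases were expressed as nanoluciferase fusions in K562 cells and luminescence was read every 4 h between 2 and 18 h as percent of control, DMSO set to 100% and a positive control to 0%. A time point counts as decreased when the signal drops significantly (2 sigma). The hit call is the authors' own, does not follow from the count of time points alone, and its rule is not shown.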
How the values were obtained:
Test in all cases: kinase-Nluc reporter destabilization hit call (1 = scored as downregulated) (binary); higher = compound decreases kinase abundance
Details in all cases: K562, 2-18 h
EGFR = EGFR (UniProt P00533)
EGFR_G719S = EGFR_G719S (UniProt P00533)
EGFR_G719S_T790M = EGFR_G719S_T790M (UniProt P00533)
EGFR_L718V = EGFR_L718V (UniProt P00533)
EGFR_L858R = EGFR_L858R (UniProt P00533)
EGFR_L861Q = EGFR_L861Q (UniProt P00533)
EGFR_T790M = EGFR_T790M (UniProt P00533)
EPHA2 = EPHA2 (UniProt P29317)
ERBB3 = ERBB3 (UniProt P21860)
[1] = molecular target: ERBB4_R711C (clone: ERBB4_mut) (UniProt Q15303)
ERN1 = ERN1 (UniProt O75460)
FGFR1 = FGFR1 (UniProt P11362)
FGFR2 = FGFR2 (UniProt P21802)
FGFR3 = FGFR3 (UniProt P22607)
FGR = FGR (UniProt P09769)
FLT3 = FLT3 (UniProt P36888)
FYN = FYN (UniProt P06241)
GSK3A = GSK3A (UniProt P49840)
HER2 = HER2 (UniProt P04626)
INSRR = INSRR (UniProt P14616)

Sequences of proteins named here, by UniProt entry; tags and fusion partners are left off. A change or cut given only in a name is not applied to a line headed by its entry.
UniProt Q15303, whole entry R711C: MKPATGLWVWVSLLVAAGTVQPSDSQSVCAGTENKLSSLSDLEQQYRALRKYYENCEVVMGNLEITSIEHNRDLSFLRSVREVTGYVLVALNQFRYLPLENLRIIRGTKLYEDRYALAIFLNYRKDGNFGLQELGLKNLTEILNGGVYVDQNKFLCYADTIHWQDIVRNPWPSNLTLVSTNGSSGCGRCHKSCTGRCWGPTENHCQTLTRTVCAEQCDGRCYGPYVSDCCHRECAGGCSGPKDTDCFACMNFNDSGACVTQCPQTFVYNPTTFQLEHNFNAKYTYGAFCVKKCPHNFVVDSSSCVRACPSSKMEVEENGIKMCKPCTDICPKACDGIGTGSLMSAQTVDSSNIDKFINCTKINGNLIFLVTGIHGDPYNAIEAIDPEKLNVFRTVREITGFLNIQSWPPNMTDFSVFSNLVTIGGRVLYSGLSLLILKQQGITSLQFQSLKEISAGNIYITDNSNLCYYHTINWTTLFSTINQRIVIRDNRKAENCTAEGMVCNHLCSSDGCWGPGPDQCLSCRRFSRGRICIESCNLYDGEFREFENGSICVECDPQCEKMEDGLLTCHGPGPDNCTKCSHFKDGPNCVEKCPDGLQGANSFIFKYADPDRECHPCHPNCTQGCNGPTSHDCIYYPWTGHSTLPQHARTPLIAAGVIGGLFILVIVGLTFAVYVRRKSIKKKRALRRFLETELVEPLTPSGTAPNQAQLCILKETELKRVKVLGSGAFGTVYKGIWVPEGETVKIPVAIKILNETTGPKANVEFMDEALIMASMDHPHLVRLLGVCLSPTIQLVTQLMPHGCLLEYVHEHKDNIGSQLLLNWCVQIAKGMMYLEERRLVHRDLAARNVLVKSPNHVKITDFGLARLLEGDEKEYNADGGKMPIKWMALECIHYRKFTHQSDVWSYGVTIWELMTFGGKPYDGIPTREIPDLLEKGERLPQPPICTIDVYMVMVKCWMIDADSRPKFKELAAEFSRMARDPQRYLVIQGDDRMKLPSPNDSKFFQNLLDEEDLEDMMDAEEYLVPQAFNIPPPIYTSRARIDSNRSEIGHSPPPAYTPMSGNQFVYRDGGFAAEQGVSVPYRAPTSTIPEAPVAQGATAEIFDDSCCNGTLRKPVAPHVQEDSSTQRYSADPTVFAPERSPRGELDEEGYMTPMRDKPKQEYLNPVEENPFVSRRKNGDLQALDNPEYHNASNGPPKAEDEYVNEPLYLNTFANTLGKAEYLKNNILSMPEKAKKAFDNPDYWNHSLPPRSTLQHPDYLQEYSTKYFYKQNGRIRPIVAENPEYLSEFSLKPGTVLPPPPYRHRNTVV
UniProt O75460: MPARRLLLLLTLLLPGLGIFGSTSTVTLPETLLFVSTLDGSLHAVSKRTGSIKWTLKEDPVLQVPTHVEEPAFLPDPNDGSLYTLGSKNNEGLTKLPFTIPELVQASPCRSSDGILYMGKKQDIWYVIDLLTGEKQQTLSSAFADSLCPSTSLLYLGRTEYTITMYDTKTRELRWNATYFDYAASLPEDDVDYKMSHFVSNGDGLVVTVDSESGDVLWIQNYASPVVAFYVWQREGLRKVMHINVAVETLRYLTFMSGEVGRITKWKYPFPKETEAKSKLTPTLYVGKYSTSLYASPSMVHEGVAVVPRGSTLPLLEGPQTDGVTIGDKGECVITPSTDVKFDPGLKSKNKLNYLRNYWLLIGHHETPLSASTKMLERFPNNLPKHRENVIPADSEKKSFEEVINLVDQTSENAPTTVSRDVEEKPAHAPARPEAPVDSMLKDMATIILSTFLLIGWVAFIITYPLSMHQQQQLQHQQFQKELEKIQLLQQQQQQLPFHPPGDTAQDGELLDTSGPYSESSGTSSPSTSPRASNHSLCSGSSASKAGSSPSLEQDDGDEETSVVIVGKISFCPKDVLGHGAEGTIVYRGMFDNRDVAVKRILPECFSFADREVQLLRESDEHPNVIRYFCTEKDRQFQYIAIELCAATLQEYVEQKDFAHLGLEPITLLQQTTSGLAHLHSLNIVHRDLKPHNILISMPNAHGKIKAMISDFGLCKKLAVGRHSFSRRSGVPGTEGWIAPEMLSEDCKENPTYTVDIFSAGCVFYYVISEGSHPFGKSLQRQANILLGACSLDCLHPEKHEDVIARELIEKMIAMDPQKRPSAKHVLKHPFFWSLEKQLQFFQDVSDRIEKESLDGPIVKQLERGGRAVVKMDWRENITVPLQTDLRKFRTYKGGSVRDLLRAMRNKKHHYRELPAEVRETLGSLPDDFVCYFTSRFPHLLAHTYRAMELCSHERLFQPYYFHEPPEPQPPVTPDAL
UniProt P21802, whole entry, looked up: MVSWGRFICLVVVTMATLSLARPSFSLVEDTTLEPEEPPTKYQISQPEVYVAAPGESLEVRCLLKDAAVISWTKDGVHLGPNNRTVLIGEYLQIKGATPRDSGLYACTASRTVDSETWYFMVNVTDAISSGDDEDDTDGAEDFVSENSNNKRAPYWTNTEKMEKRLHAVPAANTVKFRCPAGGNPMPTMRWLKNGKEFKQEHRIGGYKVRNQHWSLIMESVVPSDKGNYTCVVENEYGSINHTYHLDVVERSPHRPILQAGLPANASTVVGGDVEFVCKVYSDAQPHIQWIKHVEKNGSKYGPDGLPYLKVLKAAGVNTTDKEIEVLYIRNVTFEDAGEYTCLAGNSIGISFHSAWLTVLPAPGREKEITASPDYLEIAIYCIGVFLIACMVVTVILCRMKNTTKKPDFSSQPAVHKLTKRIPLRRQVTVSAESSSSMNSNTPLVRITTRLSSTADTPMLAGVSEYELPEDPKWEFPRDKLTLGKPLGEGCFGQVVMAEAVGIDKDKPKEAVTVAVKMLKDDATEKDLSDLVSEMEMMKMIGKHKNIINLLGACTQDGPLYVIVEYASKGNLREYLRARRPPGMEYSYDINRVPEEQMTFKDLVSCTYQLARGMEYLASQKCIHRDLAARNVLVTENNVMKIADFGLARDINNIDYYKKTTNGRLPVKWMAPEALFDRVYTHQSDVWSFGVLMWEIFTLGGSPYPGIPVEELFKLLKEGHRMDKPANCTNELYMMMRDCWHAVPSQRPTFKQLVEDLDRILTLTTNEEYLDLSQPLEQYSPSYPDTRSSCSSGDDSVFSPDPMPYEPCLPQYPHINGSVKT
UniProt P22607, whole entry, looked up: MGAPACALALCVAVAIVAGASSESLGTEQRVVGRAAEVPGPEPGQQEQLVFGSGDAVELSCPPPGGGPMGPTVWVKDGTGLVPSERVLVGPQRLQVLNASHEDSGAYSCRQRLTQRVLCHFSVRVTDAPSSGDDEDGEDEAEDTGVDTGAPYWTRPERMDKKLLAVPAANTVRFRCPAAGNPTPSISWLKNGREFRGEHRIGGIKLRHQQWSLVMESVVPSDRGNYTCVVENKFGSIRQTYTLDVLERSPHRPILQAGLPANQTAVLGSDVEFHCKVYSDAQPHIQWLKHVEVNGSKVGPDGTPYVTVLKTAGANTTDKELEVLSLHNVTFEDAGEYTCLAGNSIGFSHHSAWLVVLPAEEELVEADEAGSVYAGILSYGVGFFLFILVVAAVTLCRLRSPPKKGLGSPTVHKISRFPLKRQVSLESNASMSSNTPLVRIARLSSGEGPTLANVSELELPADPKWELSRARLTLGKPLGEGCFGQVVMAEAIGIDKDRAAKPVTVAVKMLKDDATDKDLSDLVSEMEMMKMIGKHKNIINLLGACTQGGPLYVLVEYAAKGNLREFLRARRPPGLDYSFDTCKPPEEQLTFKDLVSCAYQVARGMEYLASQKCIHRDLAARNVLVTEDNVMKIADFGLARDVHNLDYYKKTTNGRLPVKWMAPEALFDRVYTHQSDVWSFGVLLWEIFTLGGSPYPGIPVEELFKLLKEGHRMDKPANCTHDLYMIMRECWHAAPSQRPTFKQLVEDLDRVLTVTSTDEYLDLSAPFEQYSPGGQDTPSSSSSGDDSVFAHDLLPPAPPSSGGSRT
UniProt P06241, whole entry, looked up: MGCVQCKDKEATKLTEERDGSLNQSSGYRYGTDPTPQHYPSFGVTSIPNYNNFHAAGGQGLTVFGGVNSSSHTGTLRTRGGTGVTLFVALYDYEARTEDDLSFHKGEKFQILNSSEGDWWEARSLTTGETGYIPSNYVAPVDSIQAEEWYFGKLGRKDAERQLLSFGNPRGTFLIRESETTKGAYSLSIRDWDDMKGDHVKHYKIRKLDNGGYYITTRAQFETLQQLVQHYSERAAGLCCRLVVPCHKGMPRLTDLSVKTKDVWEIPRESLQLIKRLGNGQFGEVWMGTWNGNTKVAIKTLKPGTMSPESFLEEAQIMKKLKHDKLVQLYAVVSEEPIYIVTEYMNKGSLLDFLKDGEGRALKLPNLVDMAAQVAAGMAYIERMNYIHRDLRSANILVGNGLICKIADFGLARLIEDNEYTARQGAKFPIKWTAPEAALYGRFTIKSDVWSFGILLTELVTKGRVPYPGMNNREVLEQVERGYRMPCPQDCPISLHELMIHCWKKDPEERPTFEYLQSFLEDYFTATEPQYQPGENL
UniProt P49840: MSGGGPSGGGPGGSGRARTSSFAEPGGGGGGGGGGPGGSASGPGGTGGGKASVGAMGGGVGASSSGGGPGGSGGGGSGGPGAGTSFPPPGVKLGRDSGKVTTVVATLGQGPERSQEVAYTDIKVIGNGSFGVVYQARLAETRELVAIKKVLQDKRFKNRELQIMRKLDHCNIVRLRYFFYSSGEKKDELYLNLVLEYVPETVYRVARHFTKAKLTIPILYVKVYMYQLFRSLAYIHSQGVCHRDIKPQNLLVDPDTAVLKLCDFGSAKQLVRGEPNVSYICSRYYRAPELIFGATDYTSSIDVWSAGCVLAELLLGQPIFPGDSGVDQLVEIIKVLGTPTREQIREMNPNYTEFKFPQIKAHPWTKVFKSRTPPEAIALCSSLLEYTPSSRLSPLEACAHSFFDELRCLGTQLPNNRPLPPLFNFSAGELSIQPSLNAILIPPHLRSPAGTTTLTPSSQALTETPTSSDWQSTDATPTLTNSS
UniProt P14616: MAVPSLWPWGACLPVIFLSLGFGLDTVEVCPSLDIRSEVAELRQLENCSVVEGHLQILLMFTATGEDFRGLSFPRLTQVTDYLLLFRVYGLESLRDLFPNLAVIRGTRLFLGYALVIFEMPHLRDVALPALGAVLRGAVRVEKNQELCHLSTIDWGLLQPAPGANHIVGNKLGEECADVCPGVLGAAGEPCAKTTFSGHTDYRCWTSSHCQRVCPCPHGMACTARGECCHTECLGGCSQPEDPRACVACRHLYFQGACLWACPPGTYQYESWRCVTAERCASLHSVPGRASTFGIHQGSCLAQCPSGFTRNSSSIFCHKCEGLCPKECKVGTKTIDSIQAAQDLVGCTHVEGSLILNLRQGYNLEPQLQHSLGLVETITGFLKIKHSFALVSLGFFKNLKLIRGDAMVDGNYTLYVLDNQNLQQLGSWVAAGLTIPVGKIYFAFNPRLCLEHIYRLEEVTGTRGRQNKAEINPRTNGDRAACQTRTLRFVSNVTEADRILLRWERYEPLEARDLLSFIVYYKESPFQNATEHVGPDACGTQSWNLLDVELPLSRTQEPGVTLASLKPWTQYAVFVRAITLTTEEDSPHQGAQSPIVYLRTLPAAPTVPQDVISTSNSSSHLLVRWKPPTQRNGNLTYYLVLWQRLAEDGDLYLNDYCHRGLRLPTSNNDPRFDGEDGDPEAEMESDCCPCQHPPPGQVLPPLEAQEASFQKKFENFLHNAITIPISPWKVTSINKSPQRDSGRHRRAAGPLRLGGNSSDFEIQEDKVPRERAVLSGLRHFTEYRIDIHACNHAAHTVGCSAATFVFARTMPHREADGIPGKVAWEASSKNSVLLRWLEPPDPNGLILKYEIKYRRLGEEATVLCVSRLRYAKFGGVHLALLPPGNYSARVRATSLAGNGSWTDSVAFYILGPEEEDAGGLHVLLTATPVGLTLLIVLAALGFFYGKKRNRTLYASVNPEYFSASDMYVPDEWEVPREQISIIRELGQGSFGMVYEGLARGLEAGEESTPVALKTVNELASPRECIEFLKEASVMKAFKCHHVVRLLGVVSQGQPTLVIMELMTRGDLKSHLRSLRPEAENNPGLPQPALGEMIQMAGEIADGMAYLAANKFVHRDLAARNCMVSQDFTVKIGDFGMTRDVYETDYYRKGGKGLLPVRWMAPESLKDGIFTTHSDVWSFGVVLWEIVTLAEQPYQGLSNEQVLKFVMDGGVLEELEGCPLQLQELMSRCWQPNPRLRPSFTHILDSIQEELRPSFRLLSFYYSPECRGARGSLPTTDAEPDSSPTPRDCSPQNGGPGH

Measured: kinase-Nluc reporter destabilization hit call

CN(C)C(=O)c1cc2cnc(Nc3ccc(N4CCNCC4)cn3)nc2n1C1CCCC1 [Ribociclib]
inactive: EGFR; 10 µM 0 | EGFR_G719S; 10 µM 0 | EGFR_G719S_T790M; 10 µM 0 | EGFR_L718V; 10 µM 0 | EGFR_L858R; 10 µM 0 | EGFR_L861Q; 10 µM 0 | EGFR_T790M; 10 µM 0 | EPHA2; 10 µM 0 | ERBB3; 10 µM 0 | [1]; 10 µM 0 | ERN1; 10 µM 0 | FGFR1; 10 µM 0 | FGFR2; 10 µM 0 | FGFR3; 10 µM 0 | FGR; 10 µM 0 | FLT3; 10 µM 0 | FYN; 10 µM 0 | GSK3A; 10 µM 0 | HER2; 10 µM 0 | INSRR; 10 µM 0

COc1cc(/C=C/C(=O)O)ccc1O [Ferulic acid (sodium)]
inactive: EGFR; 10 µM 0 | EGFR_G719S; 10 µM 0 | EGFR_G719S_T790M; 10 µM 0 | EGFR_L718V; 10 µM 0 | EGFR_L858R; 10 µM 0 | EGFR_L861Q; 10 µM 0 | EGFR_T790M; 10 µM 0 | EPHA2; 10 µM 0 | ERBB3; 10 µM 0 | [1]; 10 µM 0 | ERN1; 10 µM 0 | FGFR1; 10 µM 0 | FGFR2; 10 µM 0 | FGFR3; 10 µM 0 | FGR; 10 µM 0 | FLT3; 10 µM 0 | FYN; 10 µM 0 | GSK3A; 10 µM 0 | HER2; 10 µM 0 | INSRR; 10 µM 0

C=CC(=O)Nc1cc2c(Nc3ccc(F)c(Cl)c3)ncnc2cc1C#CC(C)(C)N1CCN(C)CC1
inactive: EGFR; 2.5 µM 0 | EGFR_G719S; 2.5 µM 0 | EGFR_G719S_T790M; 2.5 µM 0 | EGFR_L718V; 2.5 µM 0 | EGFR_L858R; 2.5 µM 0 | EGFR_L861Q; 2.5 µM 0 | EGFR_T790M; 2.5 µM 0 | EPHA2; 2.5 µM 0 | ERBB3; 2.5 µM 0 | [1]; 2.5 µM 0 | ERN1; 2.5 µM 0 | FGFR1; 2.5 µM 0 | FGFR2; 2.5 µM 0 | FGFR3; 2.5 µM 0 | FGR; 2.5 µM 0 | FLT3; 2.5 µM 0 | FYN; 2.5 µM 0 | GSK3A; 2.5 µM 0 | INSRR; 2.5 µM 0
active: HER2; 2.5 µM 1

CC(=O)N[C@H](Cc1ccc(O)cc1)C(=O)N[C@H](CCCN=C(N)N)C(=O)N[C@H](Cc1ccccc1)C(N)=O
inactive: EGFR; 10 µM 0 | EGFR_G719S; 10 µM 0 | EGFR_G719S_T790M; 10 µM 0 | EGFR_L718V; 10 µM 0 | EGFR_L858R; 10 µM 0 | EGFR_L861Q; 10 µM 0 | EGFR_T790M; 10 µM 0 | EPHA2; 10 µM 0 | ERBB3; 10 µM 0 | [1]; 10 µM 0 | ERN1; 10 µM 0 | FGFR1; 10 µM 0 | FGFR2; 10 µM 0 | FGFR3; 10 µM 0 | FGR; 10 µM 0 | FLT3; 10 µM 0 | FYN; 10 µM 0 | GSK3A; 10 µM 0 | HER2; 10 µM 0 | INSRR; 10 µM 0

Cc1ccc(NC(=O)c2ccc(CN3CCN(C)CC3)cc2)cc1Nc1nc(-c2cccnc2)cs1 [Masitinib]
inactive: EGFR; 2.5 µM 0 | EGFR_G719S; 2.5 µM 0 | EGFR_G719S_T790M; 2.5 µM 0 | EGFR_L718V; 2.5 µM 0 | EGFR_L858R; 2.5 µM 0 | EGFR_L861Q; 2.5 µM 0 | EGFR_T790M; 2.5 µM 0 | EPHA2; 2.5 µM 0 | ERBB3; 2.5 µM 0 | [1]; 2.5 µM 0 | ERN1; 2.5 µM 0 | FGFR1; 2.5 µM 0 | FGFR2; 2.5 µM 0 | FGFR3; 2.5 µM 0 | FGR; 2.5 µM 0 | FLT3; 2.5 µM 0 | FYN; 2.5 µM 0 | GSK3A; 2.5 µM 0 | HER2; 2.5 µM 0 | INSRR; 2.5 µM 0

COc1cc(/C=C/C(=O)O)ccc1O [Ferulic acid]
inactive: EGFR; 10 µM 0 | EGFR_G719S; 10 µM 0 | EGFR_G719S_T790M; 10 µM 0 | EGFR_L718V; 10 µM 0 | EGFR_L858R; 10 µM 0 | EGFR_L861Q; 10 µM 0 | EGFR_T790M; 10 µM 0 | EPHA2; 10 µM 0 | ERBB3; 10 µM 0 | [1]; 10 µM 0 | ERN1; 10 µM 0 | FGFR1; 10 µM 0 | FGFR2; 10 µM 0 | FGFR3; 10 µM 0 | FGR; 10 µM 0 | FLT3; 10 µM 0 | FYN; 10 µM 0 | GSK3A; 10 µM 0 | HER2; 10 µM 0 | INSRR; 10 µM 0

CC(C)NC[C@@H](C(=O)N1CCN(c2ncnc3c2[C@H](C)C[C@H]3O)CC1)c1ccc(Cl)cc1 [Ipatasertib (dihydrochloride)]
inactive: EGFR; 10 µM 0 | EGFR_G719S; 10 µM 0 | EGFR_G719S_T790M; 10 µM 0 | EGFR_L718V; 10 µM 0 | EGFR_L858R; 10 µM 0 | EGFR_L861Q; 10 µM 0 | EGFR_T790M; 10 µM 0 | EPHA2; 10 µM 0 | ERBB3; 10 µM 0 | [1]; 10 µM 0 | ERN1; 10 µM 0 | FGFR1; 10 µM 0 | FGFR2; 10 µM 0 | FGFR3; 10 µM 0 | FGR; 10 µM 0 | FLT3; 10 µM 0 | FYN; 10 µM 0 | GSK3A; 10 µM 0 | HER2; 10 µM 0 | INSRR; 10 µM 0

COc1ccnc(C[S+]([O-])c2nc3cc(-n4cccc4)ccc3[nH]2)c1C (stereo not given) [Ilaprazole (sodium)]
inactive: EGFR; 10 µM 0 | EGFR_G719S; 10 µM 0 | EGFR_G719S_T790M; 10 µM 0 | EGFR_L718V; 10 µM 0 | EGFR_L858R; 10 µM 0 | EGFR_L861Q; 10 µM 0 | EGFR_T790M; 10 µM 0 | EPHA2; 10 µM 0 | ERBB3; 10 µM 0 | [1]; 10 µM 0 | ERN1; 10 µM 0 | FGFR1; 10 µM 0 | FGFR2; 10 µM 0 | FGFR3; 10 µM 0 | FGR; 10 µM 0 | FLT3; 10 µM 0 | FYN; 10 µM 0 | GSK3A; 10 µM 0 | HER2; 10 µM 0 | INSRR; 10 µM 0

CC(C)(C)n1nc(-c2cccc3ccccc23)c2c(N)ncnc21 [1-Naphthyl PP1 (hydrochloride)]
inactive: EGFR; 10 µM 0 | EGFR_G719S; 10 µM 0 | EGFR_G719S_T790M; 10 µM 0 | EGFR_L718V; 10 µM 0 | EGFR_L858R; 10 µM 0 | EGFR_L861Q; 10 µM 0 | EGFR_T790M; 10 µM 0 | EPHA2; 10 µM 0 | ERBB3; 10 µM 0 | [1]; 10 µM 0 | ERN1; 10 µM 0 | FGFR1; 10 µM 0 | FGFR2; 10 µM 0 | FGFR3; 10 µM 0 | FGR; 10 µM 0 | FLT3; 10 µM 0 | FYN; 10 µM 0 | GSK3A; 10 µM 0 | HER2; 10 µM 0 | INSRR; 10 µM 0

From the supplement of paper PMC12823440, “Inhibitors supercharge kinase turnover through native proteolytic circuits” (Nature, 2025)
